Results published in paper PMC6234033.
These are yes or no findings as the source states them, for the method shown. Binding seen in cells or lysates may run through a third protein. Some results given as binding are weak or reduced against the parent protein; the word gives no strength.

Sequences of proteins named here, by UniProt entry; tags and fusion partners are left off. A change or cut given only in a name is not applied to a line headed by its entry.
UniProt P70444: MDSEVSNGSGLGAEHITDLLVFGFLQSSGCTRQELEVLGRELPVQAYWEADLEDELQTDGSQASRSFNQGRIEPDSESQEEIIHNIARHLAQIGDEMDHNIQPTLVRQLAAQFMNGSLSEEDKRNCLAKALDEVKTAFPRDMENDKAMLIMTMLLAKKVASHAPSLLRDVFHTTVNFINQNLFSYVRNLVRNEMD
UniProt P97287: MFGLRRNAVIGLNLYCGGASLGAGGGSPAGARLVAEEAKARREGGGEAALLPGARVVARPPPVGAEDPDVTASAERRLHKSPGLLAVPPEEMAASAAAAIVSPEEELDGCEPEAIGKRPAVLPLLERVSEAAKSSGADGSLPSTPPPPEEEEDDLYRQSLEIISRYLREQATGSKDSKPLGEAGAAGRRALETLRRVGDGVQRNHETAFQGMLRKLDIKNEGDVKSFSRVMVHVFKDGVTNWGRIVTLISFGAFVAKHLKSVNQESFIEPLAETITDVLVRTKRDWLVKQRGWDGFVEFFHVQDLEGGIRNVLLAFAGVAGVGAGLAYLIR

Tests used:
[1] = biological target: FlagHA-tagged full-length Bid (wild type) (mouse) (UniProt P70444); assay: co-IP; 293T cells co-transfected with a FlagHA-Bid construct and an Mcl-1 construct; whole cell lysate, immunoprecipitation with anti-Flag M2 agarose beads, Western blot
[2] = biological target: FlagHA-tagged full-length Bid M148T (helix-6 mutant) (mouse) (UniProt P70444); assay: as above

Mcl-1 (WT) (from UniProt P97287 1-331) was tested, and the binding [1] was “binds” and the binding [2] was “binds”.
